{
  "source": "the supplement of paper PMC8256030",
  "note": "“And” between values parts separate entries of the source, which are not always exact repeats. Equal values may be shown once. This is one part of the list. Single values are uncertain here, since repeats match poorly.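 HEK293T cells were given each compound shortly before transfection with a reporter in which red mCherry is followed by the SARS-CoV-2 frameshift element and then GFP in the −1 frame, so GFP appears only after frameshifting.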",
  "data": [
    {"test_system": "SARS-CoV-2 -1 PRF reporter mCherry-FSE-GFP(-1)", "assay": "percent effect, decrease of GFP/mCherry ratio (-1 PRF reporter) relative to controls; higher = stronger frameshift inhibition", "details": "10 µM; 24 h; HEK293T", "values": [
      {"smiles": "COc1ccc2c(c1)c(CC(=O)OCC(=O)O)c(C)n2C(=O)c1ccc(Cl)cc1", "note": "[acemetacin]", "percent effect": "-0.484% and -0.472%"},
      {"smiles": "COc1ccc(CN2CCN(C(c3ccc(F)cc3)c3ccc(F)cc3)CC2)c(OC)c1OC", "note": "[lomerizine]", "percent effect": "-2.41% and -8.53%"},
      {"smiles": "NS(=O)(=O)c1cc(C(=O)O)c(NCc2ccco2)cc1Cl", "note": "[furosemide]", "percent effect": "-1.76% and -6.02%"},
      {"smiles": "NCCC[C@H](N)C(=O)O", "note": "[ornithine]", "percent effect": "-1.15% and -4.13% and -2.76%"},
      {"smiles": "CNNCc1ccc(C(=O)NC(C)C)cc1", "note": "[procarbazine]", "percent effect": "-1.35% and 14.6%"},
      {"smiles": "CN1CCC(=C2c3ccccc3CC(=O)c3sccc32)CC1", "note": "[ketotifen]", "percent effect": "-9.89% and -8.79%"},
      {"smiles": "O=C(O)c1cccnc1Nc1cccc(C(F)(F)F)c1", "note": "[niflumic acid]", "percent effect": "0.433% and -3.3%"},
      {"smiles": "CC(=O)[C@H]1CC[C@H]2[C@@H]3C[C@H](C)C4=CC(=O)CC[C@]4(C)[C@H]3[C@@H](O)C[C@]12C", "note": "[medrysone]", "percent effect": "-1.87% and -2.43%"},
      {"smiles": "CCCCCN(C)CCC(O)(P(=O)(O)O)P(=O)(O)O", "note": "[ibandronic acid]", "percent effect": "5.66% and 0.428%"},
      {"smiles": "CC(=O)OCC[N+](C)(C)C", "note": "[acetylcholine chloride]", "percent effect": "-0.0948% and 0.975%"},
      {"smiles": "CC/C(=C(\\c1ccccc1)c1ccc(OCCN(C)C)cc1)c1ccccc1", "note": "[tamoxifen]", "percent effect": "0.601% and -0.499% and 3.46%"},
      {"smiles": "C#C[C@]1(O)CC[C@H]2[C@@H]3[C@H](C)CC4=C(CCC(=O)C4)[C@H]3CC[C@@]21C", "note": "[tibolone]", "percent effect": "0.216% and -2.79%"},
      {"smiles": "CCCCCOC(=O)Nc1nc(=O)n([C@@H]2O[C@H](C)[C@@H](O)[C@H]2O)cc1F", "note": "[capecitabine]", "percent effect": "0.248% and 5.02%"},
      {"smiles": "COc1cc(NC(C)CCCN)c2ncccc2c1", "note": "(stereo not given) [primaquine]", "percent effect": "-2.38% and -11.7%"},
      {"smiles": "CCNC(=O)/C=C/c1cccc(Br)c1", "percent effect": "2.22% and -2.5%"},
      {"smiles": "NC[C@H]1O[C@H](O[C@H]2[C@H](O)[C@@H](O[C@H]3O[C@H](CO)[C@@H](O)[C@H](N)[C@H]3O)[C@H](N)C[C@@H]2N)[C@H](N)C[C@@H]1O", "note": "[tobramycin]", "percent effect": "-2.42% and -4.9%"},
      {"smiles": "CCOC(=O)[C@H](CCc1ccccc1)N[C@@H](C)C(=O)N1[C@H](C(=O)O)C[C@@H]2CCC[C@@H]21", "note": "[ramipril]", "percent effect": "-0.129% and 1.76%"},
      {"smiles": "Clc1ccc(CCC(Cn2ccnc2)Sc2c(Cl)cccc2Cl)cc1", "note": "(stereo not given) [butoconazole]", "percent effect": "0.147% and -8.19%"},
      {"smiles": "N=C(N)N1CCc2ccccc2C1", "note": "[debrisoquine]", "percent effect": "-3.87% and 1.81% and 0.97%"},
      {"smiles": "CNC1(C)C2CCC(C2)C1(C)C", "note": "(stereo not given) [mecamylamine]", "percent effect": "-5.15% and -4.32% and -2.7%"},
      {"smiles": "Cc1ccc(NC(=O)c2ccc(CN3CCN(C)CC3)cc2)cc1Nc1nccc(-c2cccnc2)n1", "note": "[imatinib]", "percent effect": "-1.88% and -5.74%"},
      {"smiles": "C[C@]12CC[C@@H]3c4ccc(OC(=O)N(CCCl)CCCl)cc4CC[C@H]3[C@@H]1CC[C@@H]2O", "note": "[estramustine]", "percent effect": "-4.02% and -11%"},
      {"smiles": "Cc1cn([C@@H]2C[C@@H](O)[C@H](CO)O2)c(=O)[nH]c1=O", "note": "[telbivudine]", "percent effect": "-4.22% and -3.45%"},
      {"smiles": "Cc1cnc(C(=O)O)c[n+]1[O-]", "note": "[acipimox]", "percent effect": "3.09% and 0.0868%"},
      {"smiles": "CC[N+](CC)(CC)CCOc1cccc(OCC[N+](CC)(CC)CC)c1OCC[N+](CC)(CC)CC", "note": "[gallamine triethiodide]", "percent effect": "-2.71% and -2.74%"},
      {"smiles": "CC(C)(C)NC(=O)[C@H]1CC[C@H]2[C@@H]3CC[C@H]4NC(=O)C=C[C@]4(C)[C@H]3CC[C@]12C", "note": "[finasteride]", "percent effect": "-4.93% and 1.76%"},
      {"smiles": "CN[C@@H]1[C@H](O[C@H]2[C@H](O[C@H]3[C@H](O)[C@@H](O)[C@H](N=C(N)N)[C@@H](O)[C@@H]3N=C(N)N)O[C@@H](C)[C@]2(O)C=O)O[C@@H](CO)[C@H](O)[C@H]1O", "note": "[Streptomycin]", "percent effect": "-1.82% and 4.82%"},
      {"smiles": "O=C(O)Cc1ccccc1Nc1c(Cl)cccc1Cl", "note": "[diclofenac]", "percent effect": "-4.41% and -0.763%"},
      {"smiles": "C=C1/C(=C\\C=C2/CCC[C@]3(C)[C@@H]([C@H](C)CCCC(C)C)CC[C@@H]23)C[C@@H](O)C[C@@H]1O", "note": "[alfacalcidol]", "percent effect": "-4.04% and -0.617%"},
      {"smiles": "Nc1nc(Cl)nc2c1ncn2[C@@H]1O[C@H](CO)[C@@H](O)[C@@H]1F", "note": "[clofarabine]", "percent effect": "1.55% and 2.88%"},
      {"smiles": "COc1ccccc1OCCNCC(O)COc1cccc2[nH]c3ccccc3c12", "note": "(stereo not given) [carvedilol]", "percent effect": "-2.76% and -0.682% and -0.737%"},
      {"smiles": "Nc1nc(N)nc(-c2cc(Cl)ccc2Cl)n1", "note": "[irsogladine]", "percent effect": "-1.88% and -1.98%"},
      {"smiles": "Cc1[nH]c(=O)c(C#N)cc1-c1ccncc1", "note": "[milrinone]", "percent effect": "-2.2% and 0.442%"},
      {"smiles": "CN(C)CCOC(c1ccccc1)c1ccccc1", "note": "[diphenhydramine]", "percent effect": "2.17% and -9.85%"},
      {"smiles": "C[C@]12CCC(=O)C=C1CC[C@@H]1[C@@H]2[C@@H](O)C[C@@]2(C)[C@H]1CC[C@]2(O)C(=O)CO", "note": "[hydrocortisone]", "percent effect": "-5.28% and -1.87% and -10.6%"},
      {"smiles": "CN(C)CCC=C1c2ccccc2CCc2ccccc21", "note": "[amitriptyline]", "percent effect": "-4.35% and -3.95%"},
      {"smiles": "CCC1=C(C)CN(C(=O)NCCc2ccc(S(=O)(=O)NC(=O)N[C@H]3CC[C@H](C)CC3)cc2)C1=O", "note": "[Glimepiride]", "percent effect": "-2.89% and -6.54%"},
      {"smiles": "C[C@]12CC[C@@H]3c4ccc(O)cc4CC[C@H]3[C@@H]1CCC2=O", "note": "[estrone]", "percent effect": "1.32% and -1.2%"},
      {"smiles": "CCS(=O)(=O)CCn1c([N+](=O)[O-])cnc1C", "note": "[tinidazole]", "percent effect": "-5.15% and -1.86%"},
      {"smiles": "O=c1[nH]c(=O)n([C@H]2C[C@H](O)[C@@H](CO)O2)cc1F", "note": "[floxuridine]", "percent effect": "-1.38% and -6.8%"}
    ]}
  ]
}
